Measured values taken from publication PMC9921851, “Synthesis and Preclinical Evaluation of Three Novel ^68Ga-Labeled Bispecific PSMA/FAP-Targeting Tracers for Prostate Cancer Imaging” (Molecules, 2023).

Experiments:
[1] = tested on: HEK293T:hFAP tumor xenografts; assay: PET/CT imaging in mice bearing HEK293T:hFAP tumor xenografts; format: in vivo; settings: PET images acquired at 1 h post injection
LNCaP tumor xenografts = assay: PET/CT imaging in mice bearing LNCaP tumor xenografts; format: in vivo; settings: PET images acquired at 1 h post injection

| SMILES | Visualization of HEK293T:hFAP tumor xenografts in PET images [1] | Visualization of LNCaP tumor xenografts in PET images (LNCaP tumor xenografts) |
| --- | --- | --- |
| N#C[C@@H]1CC(F)(F)CN1C(=O)CNC(=O)c1ccnc2ccc(OCCCc3cn(CC(=O)N[C@@H](CCCCNC(=O)CN4CCN(CC(=O)[O-])CCN(CC(=O)[O-])CCN(CC(=O)[O-])CC4)C(=O)NCC(=O)NC[C@H]4CC[C@H](C(=O)N[C@@H](Cc5c6ccccc6cc6ccccc56)C(=O)NCCCC[C@H](NC(=O)N[C@@H](CCC(=O)O)C(=O)O)C(=O)O)CC4)nn3)cc12.[68Ga+3] [[^68Ga]Ga-AV01017] | barely visualized | barely visualized |
| N#C[C@@H]1CC(F)(F)CN1C(=O)CNC(=O)c1ccnc2ccc(-c3cn(CC(=O)N[C@@H](CCCCNC(=O)CN4CCN(CC(=O)[O-])CCN(CC(=O)[O-])CCN(CC(=O)[O-])CC4)C(=O)NCC(=O)NC[C@H]4CC[C@H](C(=O)N[C@@H](Cc5c6ccccc6cc6ccccc56)C(=O)NCCCC[C@H](NC(=O)N[C@@H](CCC(=O)O)C(=O)O)C(=O)O)CC4)nn3)cc12.[68Ga+3] [[^68Ga]Ga-AV01030] | clearly visualized | barely visualized |
| N#C[C@@H]1CC(F)(F)CN1C(=O)CNC(=O)c1ccnc2ccc(OCc3cn(CC(=O)N[C@@H](CCCCNC(=O)CN4CCN(CC(=O)[O-])CCN(CC(=O)[O-])CCN(CC(=O)[O-])CC4)C(=O)NCC(=O)NC[C@H]4CC[C@H](C(=O)N[C@@H](Cc5c6ccccc6cc6ccccc56)C(=O)NCCCC[C@H](NC(=O)N[C@@H](CCC(=O)O)C(=O)O)C(=O)O)CC4)nn3)cc12.[68Ga+3] [[^68Ga]Ga-AV01038] | barely visualized | barely visualized |
| N#C[C@@H]1CC(F)(F)CN1C(=O)CNC(=O)c1ccnc2ccc(OCCCN3CCN(C(=O)CN4CCN(CC(=O)[O-])CCN(CC(=O)[O-])CCN(CC(=O)[O-])CC4)CC3)cc12.[68Ga+3] [[^68Ga]Ga-FAPI-04, reference compound] | clearly visualized | not visualized |
| O=C([O-])CN1CCN(CC(=O)[O-])CCN(CC(=O)NC[C@H]2CC[C@H](C(=O)N[C@@H](Cc3c4ccccc4cc4ccccc34)C(=O)NCCCC[C@H](NC(=O)N[C@@H](CCC(=O)O)C(=O)O)C(=O)O)CC2)CCN(CC(=O)[O-])CC1.[68Ga+3] [[^68Ga]Ga-HTK03041, reference compound] | not visualized | clearly visualized |
